Measurements taken from patent publication US20140235877A1, “COMPOUNDS, METHODS OF PREPARATION AND USE THEREOF FOR TREATING CANCER” (Hong Kong Baptist University, priority 2013, published 2014).

System: HepG2
Test: MTT cell viability assay, HepG2
Type: cell-based, human
From the text: Curcumin and paclitaxel are used as the positive control.

With COc1c(O)c(O)c2c(=O)c3c(CC=C(C)C)c(CC=C(C)C)c(O)c(O)c3oc2c1CC=C(C)C [Compound A, 1,2,5,6-tetrahydroxy-3-methoxy-4,7,8-tri(3-methylbut-2-enyl)-xanthone] the OD value (HepG2, compound A 0.8 μg/mL) was 2.252, the OD value (HepG2, compound A 1.6 μg/mL) was 2.243 and the OD value (HepG2, compound A 3.125 μg/mL) was 2.076. It also gave an OD value (HepG2, compound A 6.25 μg/mL) of 0.996, an OD value (HepG2, compound A 12.5 μg/mL) of 0.5955 and an OD value (HepG2, compound A 25 μg/mL) of 0.5715. The OD value (HepG2, compound A 50 μg/mL) was 0.7495 and the OD value (HepG2, compound A 100 μg/mL) was 0.6285.
